Assay results from PMC7509492 (Frontiers in Bioengineering and Biotechnology, 2020).

Test: general procedure: Fmoc solid-phase peptide synthesis; Fmoc-Rink-amide ChemMatrix resin; HBTU/DIEA; DIPCDI for fluorophore coupling
Details: whole synthesis, HPLC, scale of the general procedure 0.1 mmol

Row | Substance | purity (crude or final not stated) [%]
1 | PEPTIDE1{[rhb].S.G.T.Q.E.E.Y.[am]}$$$$V2.0 | 95.3
2 | TF3-AGILKRW-amide | 95.2
3 | PEPTIDE1{[rhb].A.G.I.L.K.R.W.[am]}$$$$V2.0 | 99.4
4 | CF-WRRRYRRWRRRRRWRRRPRR-amide | 98.1
5 | TF3-WRRRYRRWRRRRRWRRRPRR-amide | 97.0
6 | PEPTIDE1{W.R.R.R.Y.R.R.W.R.R.R.R.R.W.R.R.R.P.R.R.[am]}$$$$V2.0 | 99.1
7 | TF3-KKRLKKIFKKPMVIGVTIPF-amide | 95.2
8 | TF3-SGTQEEY-amide | 99.3
9 | CF-KKRLKKIFKKPMVIGVTIPF-amide | 96.6
10 | PEPTIDE1{[rhb].K.K.R.L.K.K.I.F.K.K.P.M.V.I.G.V.T.I.P.F.[am]}$$$$V2.0 | 99.1
11 | CF-AGILKRW-amide | 96.3
12 | Q570-SGTQEEY-amide | 99.6
13 | CF-SGTQEEY-amide | 99.1
14 | PEPTIDE1{A.G.I.L.K.R.W.[am]}$$$$V2.0 | 99.5
15 | Q570-WRRRYRRWRRRRRWRRRPRR-amide | 99.7
16 | Q570-KKRLKKIFKKPMVIGVTIPF-amide | 96.4
17 | PEPTIDE1{S.G.T.Q.E.E.Y.[am]}$$$$V2.0 | 99.5
18 | PEPTIDE1{K.K.R.L.K.K.I.F.K.K.P.M.V.I.G.V.T.I.P.F.[am]}$$$$V2.0 | 98.8
19 | PEPTIDE1{[rhb].W.R.R.R.Y.R.R.W.R.R.R.R.R.W.R.R.R.P.R.R.[am]}$$$$V2.0 | 98.5
20 | Q570-AGILKRW-amide | 99.6

Some peptides are written in HELM: one residue between dots, names in brackets for other building blocks, links after the first $.
